Test results taken from publication doi:10.1101/746693 (bioRxiv, 2019).
Changes are numbered by the printed parent chain. Like-named read-outs stand apart in the source and are kept apart here. Results are given in words; binding and its absence hold for the method and conditions named. In cells and extracts the contact can be indirect. Some results given as binding are weak or reduced against the parent protein; the word gives no strength. For some of these results: Where a sequence is shown, tags or fusion partners need not be part of it.

Sequences of proteins named here, by UniProt entry; tags and fusion partners are left off. Residues count along the entry.
UniProt P55085, residues 37-397: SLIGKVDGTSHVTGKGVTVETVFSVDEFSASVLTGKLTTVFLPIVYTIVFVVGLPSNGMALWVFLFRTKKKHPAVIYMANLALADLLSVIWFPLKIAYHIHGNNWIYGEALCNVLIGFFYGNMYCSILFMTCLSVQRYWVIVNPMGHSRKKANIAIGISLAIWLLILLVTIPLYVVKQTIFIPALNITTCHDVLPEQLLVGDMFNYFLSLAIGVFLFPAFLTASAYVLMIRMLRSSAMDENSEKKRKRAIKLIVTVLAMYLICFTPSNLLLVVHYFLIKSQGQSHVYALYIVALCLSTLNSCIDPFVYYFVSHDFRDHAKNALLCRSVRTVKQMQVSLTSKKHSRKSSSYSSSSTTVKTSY

Columns and labels:
Experiment in all cases: FRET or BRET
PAR4^H229A-YFP (human) [1] = molecular target: T1, PAR4^H229A-YFP (human) (UniProt Q96RI0)
T1 sequence: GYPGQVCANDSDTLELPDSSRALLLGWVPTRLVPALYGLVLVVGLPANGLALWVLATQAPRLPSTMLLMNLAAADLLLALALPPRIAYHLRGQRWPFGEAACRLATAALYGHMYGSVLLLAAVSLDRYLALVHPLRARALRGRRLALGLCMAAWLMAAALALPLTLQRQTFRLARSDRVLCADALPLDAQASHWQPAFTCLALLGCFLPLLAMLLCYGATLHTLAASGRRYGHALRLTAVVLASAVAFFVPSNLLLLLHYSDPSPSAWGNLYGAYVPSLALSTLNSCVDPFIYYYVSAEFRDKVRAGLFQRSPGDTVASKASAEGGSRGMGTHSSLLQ

PAR4^Q242A-YFP (human) [2] = molecular target: T2, PAR4^Q242A-YFP (human) (UniProt Q96RI0)
T2 sequence: T1 sequence with A182H, Q195A

PAR4^H229A-YFP (human) [3] = molecular target: T1, PAR4^H229A-YFP (human); remark: listed apart in the source
PAR2-YFP = PAR2-YFP (UniProt P55085)
PAR4^Q242A-YFP (human) [4] = molecular target: T2, PAR4^Q242A-YFP (human); remark: listed apart in the source
[5] = molecular target: T3, Proteinase Activated Receptor-4 (PAR4)-YFP, wild type (human) (UniProt Q96RI0)
T3 sequence: T1 sequence with A182H

Measured: binding

β-arrestin-2-renilla luciferase (from UniProt P32121 1-409)
not listed: [5]
binds: all other assays above

B1: β-arrestin-1-renilla luciferase (natural protein, UniProt P49407 1-418, looked up)
chain: MGDKGTRVFKKASPNGKLTVYLGKRDFVDHIDLVDPVDGVVLVDPEYLKERRVYVTLTCAFRYGREDLDVLGLTFRKDLFVANVQSFPPAPEDKKPLTRLQERLIKKLGEHAYPFTFEIPPNLPCSVTLQPGPEDTGKACGVDYEVKAFCAENLEEKIHKRNSVRLVIRKVQYAPERPGPQPTAETTRQFLMSDKPLHLEASLDKEIYYHGEPISVNVHVTNNTNKTVKKIKISVRQYADICLFNTAQYKCPVAMEEADDTVAPSSTFCKVYTLTPFLANNREKRGLALDGKLKHEDTNLASSTLLREGANREILGIIVSYKVKVKLVVSRGGLLGDLASSDVAVELPFTLMHPKPKEEPPHREVPENETPVDTNLIELDTNDDDIVFEDFARQRLKGMKDDKEEEEDGTGSPQLNNR
not listed: PAR2-YFP
binds: all other assays above
